From PubChem BioAssay (NCATS)
Several values for one entry are separate records, joined by “and”; a condition that tells them apart may be missing. Equal entries are not always repeated. Inconclusive results, whose numbers are uncertain, are shown with a selection of clear calls. Potencies beside an inconclusive call are fits to weak or partial responses and may not hold up. For some assays here: A note “side channel” means that the fit belongs to a control or component signal, not to the main read-out. Activity calls are given as the source filed them. Unless noted, calls come from the whole dose curve.

The chains behind the UniProt entries cited, without tags or fusion partners. Where a name states a change or a piece, a line headed by the entry shows the natural chain unless it says otherwise.
UniProt P51449: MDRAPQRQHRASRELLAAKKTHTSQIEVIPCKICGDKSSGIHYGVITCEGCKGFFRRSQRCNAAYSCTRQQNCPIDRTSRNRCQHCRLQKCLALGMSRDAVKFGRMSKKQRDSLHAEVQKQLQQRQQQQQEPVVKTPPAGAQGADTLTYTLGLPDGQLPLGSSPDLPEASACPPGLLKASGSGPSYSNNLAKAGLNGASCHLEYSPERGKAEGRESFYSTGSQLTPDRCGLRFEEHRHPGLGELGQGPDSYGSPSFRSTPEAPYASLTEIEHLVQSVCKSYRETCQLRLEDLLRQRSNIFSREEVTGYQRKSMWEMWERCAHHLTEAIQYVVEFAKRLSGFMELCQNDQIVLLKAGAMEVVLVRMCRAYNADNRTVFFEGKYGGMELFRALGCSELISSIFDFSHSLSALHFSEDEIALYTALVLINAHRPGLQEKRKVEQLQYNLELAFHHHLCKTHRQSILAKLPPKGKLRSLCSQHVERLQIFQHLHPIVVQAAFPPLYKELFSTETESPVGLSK
UniProt Q07869: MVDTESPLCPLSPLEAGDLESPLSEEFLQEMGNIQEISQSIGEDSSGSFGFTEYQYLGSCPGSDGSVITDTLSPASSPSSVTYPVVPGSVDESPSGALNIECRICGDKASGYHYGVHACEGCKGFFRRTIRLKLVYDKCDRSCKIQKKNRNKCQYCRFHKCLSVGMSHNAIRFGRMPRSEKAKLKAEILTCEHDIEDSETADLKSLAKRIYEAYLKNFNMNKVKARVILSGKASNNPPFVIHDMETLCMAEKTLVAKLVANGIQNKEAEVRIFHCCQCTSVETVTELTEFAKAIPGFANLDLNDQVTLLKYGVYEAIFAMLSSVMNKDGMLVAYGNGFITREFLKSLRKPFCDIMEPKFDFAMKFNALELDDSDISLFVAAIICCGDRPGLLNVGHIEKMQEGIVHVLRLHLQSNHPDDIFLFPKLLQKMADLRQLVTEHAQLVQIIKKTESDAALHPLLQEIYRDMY

Columns and labels:
[1] = qHTS assay for small molecule agonists of the antioxidant response element (ARE) signaling pathway (AID 651741; active = well fitted activation curve with a large enough effect in the signal ratio; inconclusive = small, poorly fitted or top-dose-only effect, or effect the other way, or a change in a side signal; the % refers to the signal ratio; for activation: % of control where 0% means no effect); conditions: HepG2 ARE-bla reporter, beta-lactamase FRET ratio, 16 h
In short: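 Agonist activity is measured as ARE-driven beta-lactamase expression in a stable HepG2 reporter line, using 16 h compound treatment at 37 C and a FRET substrate fluorescence readout after 2 h.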

[2] = qHTS assay for small molecule disruptors of the mitochondrial membrane potential - 1 hr assay (AID 651754); conditions: ratio change, negative = depolarisation: at 92.2 µM (top of the series); note: nearly all actives have a fitted effect of over 35% in size; for ratio change, negative = depolarisation: % is set by controls: 0 for no effect and ±100 for the full control effect
In short: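 In this qHTS format, a 1 hr compound treatment of HepG2 cells precedes Mito-MPS staining, and membrane potential is judged from aggregate (red) against monomer (green) fluorescence intensity.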

[3] = qHTS assay for small molecule disruptors of the mitochondrial membrane potential - 5 hr assay (AID 651755); conditions: JC-1-type ratio dye; ratio change, negative = disruption: at 92.2 µM (top of the series); note: nearly all actives have a fitted effect of over 40% in size; for ratio change, negative = disruption: % is set by controls: 0 for no effect and ±100 for the full control effect
In short: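 Membrane-potential dye readout: red aggregate (540 ex/590 em) versus green monomer (490 ex/535 em) fluorescence after 30 min dye loading, following 5 hr compound exposure at 37C of overnight-plated HepG2 cells.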

[4] = qHTS assay to identify small molecules that stimulate interleukin-8 (IL-8) secretion (AID 651758; active = well fitted activation curve with a large enough effect in the signal ratio; inconclusive = small, poorly fitted or top-dose-only effect, or effect the other way, or a change in a side signal; the % refers to the signal ratio; for activation: 0% is about no effect); conditions: HTRF ratio (665/615)
In short: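 Secreted IL-8 measured homogeneously by TR-FRET (two labelled anti-IL-8 antibodies, 1-3 h at room temperature) after a 16 h, 37 C compound treatment of THP-1 cells at 2000 cells/well.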

[5] = target: Nuclear receptor ROR-gamma (Homo sapiens) (UniProt P51449); assay: qHTS assay for small molecule antagonists of the retinoid-related orphan receptor gamma (ROR-gamma) signaling pathway (AID 651802; active = well fitted curve in the direction sought with a large enough effect; inconclusive = small, poorly fitted or top-dose-only effect, or another doubt; inactive = no such curve, though single readings can be large; an effect the other way counts as inactive or inconclusive; note: nearly all actives have a fitted effect of over 60% in size); conditions: ROR-gamma antagonist cell reporter assay; series mostly up to 92.2 µM
In short: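 Doxycycline-induced reporter activity in engineered CHO cells (TET-inducible ROR, RORE-LUC) was measured by luminescence after 16hr compound exposure at 37C.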

[6] = qHTS assay for small molecule activators of the p53 signaling pathway (AID 651743; active = well fitted activation curve with a large enough effect in the signal ratio, not every such curve was filed as active; inconclusive = small, poorly fitted or top-dose-only effect, or a change in a side signal; the % refers to the signal ratio; for activation: % of control where 0% means no effect); conditions: HCT-116 p53RE-bla, beta-lactamase FRET ratio, 16 h; activation: active compounds read high
In short: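 A beta-lactamase reporter under p53 response element control, stably carried by HCT-116 cells, reported pathway activation. Test compounds were applied for 16 hours at 37 C, and fluorescence was measured 2 hours after adding the B/G FRET substrate.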

[7] = qHTS assay for small molecule activators of the nuclear factor-kappa B (NF-kB) signaling pathway (AID 651749; active = well fitted activation curve with a large enough effect in the signal ratio; inconclusive = small, poorly fitted or top-dose-only effect, or a change in a side signal; the % refers to the signal ratio); conditions: NF-kB-bla ME-180 cells, beta-lactamase FRET ratio, 16 h; activation: active compounds read high
In short: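 FRET-based beta-lactamase detection in ME-180 cells reports NF-kB response-element-driven transcription following overnight (16 hr) compound treatment.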

[8] = target: Peroxisome proliferator-activated receptor alpha (Homo sapiens) (UniProt Q07869); assay: qHTS assay for small molecule agonists of the peroxisome proliferator-activated receptor alpha (PPARalpha) signaling pathway (AID 651778; active = well fitted curve in the direction sought with a large enough effect; inconclusive = small, poorly fitted or top-dose-only effect, or another doubt; inactive = no such curve, though single readings can be large; an effect the other way counts as inactive or inconclusive); conditions: PathHunter PPARalpha complementation, chemiluminescence, 6 h; max response: active compounds read high
In short: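 Chemiluminescence from complemented enzyme reported PPARalpha activation in cells after 6 hr of compound treatment at 37 C. The detection reagent was incubated for 60 min at room temperature, and compounds were scored as agonists.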

[9] = activation: at 96 µM (top of the series)
[10] = activation: at 92.2 µM (top of the series)
Potency is the fitted concentration of half-maximal effect.

SMILES: C[C@]12CCC(=O)C[C@@H]1CC[C@@H]1[C@@H]2CC[C@]2(C)[C@@H](O)CC[C@@H]12
- Potency [1, 9]: active: 24.3 µM
- Potency [2]: inconclusive: 17.8 µM [side channel, rising, partial curve]
- Potency [3]: inconclusive: 25.1 µM [side channel, rising, partial curve]
- Potency [4, 10]: inconclusive: 66.8 µM [activator, partial curve, poor fit]

SMILES: CCCCCCCCCCCC[N+](C)(C)CCOc1ccccc1
- Potency [1, 9]: inconclusive: 75 µM [cytotoxic, single point]
- ratio change, negative = depolarisation [2]: inconclusive: 31.4%
- ratio change, negative = disruption [3]: inconclusive: 34.9%
- Potency [4, 10]: inactive

SMILES: CCCCC(CC)COC(=O)c1ccccc1C(=O)OCC(CC)CCCC (centres undefined)
- Potency [1, 9]: inconclusive: 68.6 µM [activator, partial curve, poor fit]
- activation [1, 9]: inconclusive: 7.94%
- Potency [4, 10]: inconclusive: 84.1 µM [activator, partial curve, poor fit]
- Potency [5]: inconclusive: 75 µM [inhibitor, single point]

SMILES: CCCSP(=O)(OCC)SCCC
- Potency [1, 9]: inconclusive: 54.5 µM [activator, partial curve]

SMILES: C[C@H]1O[C@@H](O[C@H]2[C@@H](O)C[C@H](O[C@H]3[C@@H](O)C[C@H](O[C@H]4CC[C@@]5(C)[C@H](CC[C@@H]6[C@@H]5CC[C@]5(C)[C@@H](C7=CC(=O)OC7)CC[C@]65O)C4)O[C@@H]3C)O[C@@H]2C)C[C@H](O)[C@@H]1O
- Potency [1, 9]: inconclusive: 0.545 µM [inhibitor, full curve]

SMILES: [N-]=[N+]=CC(=O)OC[C@H](N)C(=O)O
- Potency [1, 9]: inactive

SMILES: CS(=O)(=O)c1ccc(C(=O)C2C(=O)CCCC2=O)c([N+](=O)[O-])c1
- Potency [1, 9]: active: 54.5 µM

SMILES: Clc1ccc(C(c2ccc(Cl)cc2)C(Cl)(Cl)Cl)cc1
- Potency [1, 9]: active: 66.8 µM
- Potency [6]: inconclusive: 79.4 µM [side channel, falling, single point]
- Potency [7]: inconclusive: 44.7 µM [side channel, falling, partial curve, poor fit]
- Potency [2]: inactive
- Potency [4, 10]: inconclusive: 66.8 µM [inhibitor, partial curve, poor fit]
- Potency [5]: inconclusive: 75 µM [inhibitor, single point]

SMILES: O=C(O)COc1nc(Cl)c(Cl)cc1Cl
- Potency [1, 9]: inconclusive: 54.5 µM [activator, partial curve, poor fit]

SMILES: CCCCCCCCCC(CC)c1ccc(S(=O)(=O)O)cc1 (centres undefined)
- Potency [1, 9]: inconclusive: 68.6 µM [activator, partial curve, poor fit]
- activation [1, 9]: inconclusive: 9.08%
- Potency [8]: inconclusive: 50.1 µM [activator, single point]

SMILES: CC(C)(C)CC(C)(C)c1ccc(O)cc1
- activation [1, 9]: inconclusive: 33.6%
- Potency [7]: inconclusive: 39.8 µM [side channel, falling, partial curve]

SMILES: CCCCCCCCCCCCCCCC[N+](C)(C)C
- Potency [1, 9]: inconclusive: 61.1 µM [cytotoxic, side channel, partial curve] and inconclusive: 61.1 µM [activator, partial curve]
- Potency [7]: inconclusive: 50.1 µM [rising, single point]

SMILES: C[C@H]1CC[C@@H]2[C@@H](C)[C@H]3[C@H](C[C@H]4[C@@H]5CC=C6CC(O[C@@H]7O[C@H](CO)[C@H](O)[C@H](O[C@@H]8O[C@H](CO)[C@@H](O)[C@H](O)[C@H]8O)[C@H]7O[C@H]7O[C@@H](C)[C@H](O)[C@@H](O)[C@H]7O)CC[C@]6(C)[C@H]5CC[C@]34C)N2C1 (some centres undefined)
- Potency [1, 9]: inconclusive: 66.8 µM [cytotoxic, partial curve]
- Potency [7]: inconclusive: 44.7 µM [side channel, falling, partial curve]
- Potency [2]: active: 33.5 µM
- Potency [4, 10]: inconclusive: 75 µM [inhibitor, single point]
- Potency [5]: active: 13.3 µM

SMILES: O=[N+]([O-])C(Br)(CO)CO
- Potency [1, 9]: active: 54.5 µM

SMILES: C[C@@H]1Cc2c(Cl)cc(C(=O)N[C@@H](Cc3ccccc3)C(=O)O)c(O)c2C(=O)O1
- Potency [1, 9]: inconclusive: 68.6 µM [activator, single point]
- Potency [6]: active: 0.891 µM
- Potency [7]: active: 44.7 µM

SMILES: O=S(=O)(c1ccc(Cl)cc1)c1ccc(Cl)cc1
- Potency [1, 9]: active: 66.8 µM
- Potency [2]: inconclusive: 42.2 µM [inhibitor, partial curve]
- Potency [3]: inconclusive: 75 µM [inhibitor, single point] and inconclusive: 42.2 µM [inhibitor, partial curve]
- activation ([4]; at 92.2 µM (top of the series)): inactive: -0.363%
- activation [4, 10]: inconclusive: -12.3%
- Potency [5]: inconclusive: 33.5 µM [inhibitor, partial curve, poor fit]

SMILES: O=C(O)C(Cl)Cl
- activation [1, 9]: inconclusive: 14.1%
- activation ([1]; at 96 µM (top of the series)): inactive: 4.33%
- activation [4, 10]: inconclusive: 1.7%

SMILES: COP(=O)(OC)C(O)C(Cl)(Cl)Cl (centres undefined)
- Potency [1, 9]: active: 19.3 µM

SMILES: Nc1nc(N)nc(NC2CC2)n1
- Potency [1, 9]: inactive

SMILES: Clc1ccc(COC(Cn2ccnc2)c2ccc(Cl)cc2Cl)cc1 (centres undefined)
- Potency [1, 9]: inconclusive: 66.8 µM [cytotoxic, side channel, partial curve]
- Potency [2]: inconclusive: 17.8 µM [side channel, falling, full curve]
- Potency [3]: inconclusive: 84.1 µM [inhibitor, single point]
- activation [4, 10]: inconclusive: 3.82%

SMILES: C[C@@H]1O[C@@H](O[C@H]2C[C@@H](O)[C@]3(CO)[C@H]4[C@H](O)C[C@]5(C)[C@@H](C6=CC(=O)OC6)CC[C@]5(O)[C@@H]4CC[C@]3(O)C2)[C@H](O)[C@H](O)[C@H]1O
- Potency [1, 9]: inconclusive: 1.09 µM [inhibitor, full curve]

SMILES: O=C(Nc1ccccc1-c1ccc(Cl)cc1)c1cccnc1Cl
- Potency [1, 9]: inconclusive: 61.1 µM [activator, single point]

SMILES: Nc1ccc([As](=O)(O)O)cc1
- Potency [1, 9]: inactive

SMILES: COP(=S)(OC)Oc1ccc(Sc2ccc(OP(=S)(OC)OC)cc2)cc1
- Potency [1, 9]: active: 61.1 µM

SMILES: Nc1ccc(N=Nc2ccccc2)cc1
- Potency [1, 9]: active: 27.3 µM

SMILES: C[C@]12CCC(=O)C=C1CC[C@@H]1[C@@H]2CC[C@@]2(C)[C@H]1CC[C@]2(C)O
- activation [1, 9]: inconclusive: 12.5%
- activation [6]: inactive: 5.56%
- Potency [2]: inconclusive: 44.7 µM [side channel, rising, partial curve]
- Potency [3]: inconclusive: 39.8 µM [side channel, rising, partial curve]
- Potency [4, 10]: inactive

SMILES: O=c1oc2ccccc2c(O)c1C(CC(O)c1ccc(-c2ccc(Br)cc2)cc1)c1ccccc1 (centres undefined)
- Potency [1, 9]: active: 27.3 µM
- Potency [6]: inconclusive: 35.5 µM [side channel, falling, partial curve, poor fit]

SMILES: C[C@]12CC[C@H]3[C@@H](CCC4=CC(=O)CC[C@@]43C)[C@@H]1CC[C@H]2O
- Potency [1, 9]: inconclusive: 34.4 µM [activator, partial curve, poor fit]

SMILES: CCO/N=C(\CC)C1=C(O)CC(c2c(C)cc(C)cc2C)CC1=O (centres undefined)
- activation [1, 9]: inconclusive: 9.84%

SMILES: C[CH2][Hg][S]c1ccccc1C(=O)O
- Potency [1, 9]: inconclusive: 1.37 µM [cytotoxic, side channel, full curve]
- Potency [6]: inconclusive: 14.1 µM [side channel, falling, full curve]
- Potency [7]: inconclusive: 35.5 µM [cytotoxic, side channel, partial curve]

SMILES: O=c1[nH]c(=O)n(Cl)c(=O)n1Cl
- Potency [1, 9]: inactive

SMILES: Nc1c(Cl)c(Cl)c(Cl)c(Cl)c1Cl
- Potency [1, 9]: inconclusive: 48.6 µM [activator, partial curve]

SMILES: CC(C)Oc1cccc(NC(=O)c2ccccc2C(F)(F)F)c1
- activation [1, 9]: inconclusive: 20.5%

SMILES: COP(=S)(OC)SCN1C(=O)c2ccccc2C1=O
- Potency [1, 9]: inconclusive: 61.1 µM [activator, partial curve]

SMILES: N[C@@H](Cc1ccc(N(CCCl)CCCl)cc1)C(=O)O
- Potency [1, 9]: active: 54.5 µM and active: 42.2 µM
- Potency [6]: active: 39.8 µM and active: 25.1 µM
- activation [4, 10]: inconclusive: 100%

SMILES: COP(=O)(OC)OC=C(Cl)Cl
- Potency [1, 9]: active: 37.6 µM and active: 42.2 µM and active: 30.6 µM
- Potency [7]: inconclusive: 11.2 µM [side channel, falling, full curve, poor fit] and inconclusive: 3.16 µM [side channel, falling, full curve, poor fit]
- Potency [4, 10]: active: 21.1 µM and active: 66.8 µM
- Potency [5]: inconclusive: 47.3 µM [inhibitor, partial curve, poor fit]

SMILES: O=C(O)CCCOc1ccc(Cl)cc1Cl
- activation [1, 9]: inconclusive: 20.9%

SMILES: CC[C@H](C)[C@H]1O[C@]2(C=C[C@@H]1C)C[C@@H]1C[C@@H](C/C=C(\C)[C@@H](O[C@H]3C[C@H](OC)[C@@H](O[C@H]4C[C@H](OC)[C@@H](O)[C@H](C)O4)[C@H](C)O3)[C@@H](C)/C=C/C=C3\CO[C@@H]4[C@H](O)C(C)=C[C@@H](C(=O)O1)[C@]34O)O2
- Potency [6]: inconclusive: 25.1 µM [side channel, falling, partial curve]
- Potency [7]: inconclusive: 17.8 µM [side channel, falling, full curve]

SMILES: N#Cc1nn(-c2c(Cl)cc(C(F)(F)F)cc2Cl)c(N)c1S(=O)C(F)(F)F (centres undefined)
- Potency [6]: inconclusive: 44.7 µM [activator, single point]

SMILES: C[C@H]1CCC[C@H](O)CCCCCc2cc(O)cc(O)c2C(=O)O1
- Potency [1, 9]: inconclusive: 66.8 µM [activator, single point]
- Potency [2]: active: 33.5 µM
- activation [4, 10]: inconclusive: 0.0155%
